Source: US10934244B2, “Compounds for use in treating neuromuscular disorders” (NMD PHARMA A/S, priority 2015, dated 2021)
The name of at least one read-out is uncertain.

Test system: soleus muscles
Assay: Mg2+ concentration required to depress nerve-stimulated force by 50% (Kd,Mg2+), combination treatments
Type: cell-based, rat
Conditions: 3,4-AP (10 μM) alone; control 3.5 ± 0.1 mM
Protocol: FIG. 6. […] Muscles from 4-week-old rats were stimulated to contract by activating the motor nerve with short duration pulses in field stimulation. Muscles contracted every 10 min for 2 s in response to 30 Hz stimulation. Four different experimental conditions were used. […] C) similar to A) but this muscle had been pre-incubated with 3,4-AP. […] The force integral (AUC) was determined at each extracellular Mg^2+ concentration. AUC was plotted against Mg^2+ concentration and the data was fitted to a sigmoidal function (FIG. 6E). This provided the extracellular Mg^2+ concentration that was required to reduce the nerve-stimulated force to 50% (Mg50) under the four different conditions (see Table 5).
While the use of tubocurarine mimics conditions with reduced neuromuscular transmission due to post-synaptic dysfunction (myasthenia gravis, neuromuscular blockade), the experiments with elevated extracellular Mg^2+ mimics conditions with pre-synaptic dysfunction akin to a range of neuromuscular disorders including Lambert Eaton syndrome^26, motor neuron disorders^6-9 and polyneuropathy^18, 19. […] Based on this it was determined whether recovery of nerve-stimulated force at elevated extracellular Mg^2+ with ClC-1 inhibiting compounds could be added to force recovery with 3,4-AP. […] To quantify the effect of compounds on Mg^2+ sensitivity the force at the different Mg^2+ concentrations was determined. […]

Nc1ccncc1N [3,4-AP, 3,4-diaminopyridine, reference compound]
Kd, Mg2+: 5.8 ± 0.3 mM
